PubChem BioAssay AID652248 | Drosophila RNAi Screening Center, 2013
The whole screen tested 863 reagents; shown is a part drawn at random. 32 of them (3.7%) count as active. 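Calls also used reproducibility and a similarity ranking whose scores are not deposited; many active genes show only modest elongated scores.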 Unmarked entries are inactive. Reagents against one gene are numbered here. A plus sign joins genes that one reagent is predicted to hit. The record does not give: the amount of reagent, the time to read-out.

Assay: 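Kinase and phosphatase regulators of cell lengthening and shape variety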 (primary screen)
Cell system: cultured Drosophila hemocytes
Reagents: long dsRNA against Drosophila genes
Detection: 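Automated microscopy of stained actin, tubulin and nuclei; single-cell shape measures assigned to five reference shape types, giving a score per dsRNA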
Direction: elongated score: higher = more elongated bipolar cells; normal round score: higher = more normal rounded cells; teardrop score: higher = more small teardrop-shaped cells
Hit rule: 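a gene counts as active when its knock-down clearly increases the elongated score; a low similarity score was then used to rank the actives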

| Gene | reagent no. | elongated score, rep 1 | elongated score, rep 2 | normal round score, rep 1 | teardrop score, rep 1 |
| --- | --- | --- | --- | --- | --- |
| CG2104 | 1 | -0.53 | – | 0.69 | -1.23 |
| CG1271 | 1 | 0.96 | – | -1.15 | 0.86 |
| par-1 | 1 | -0.11 (active) | – | -1.86 | 2.79 |
| par-1 | 2 | 0.31 (active) | – | -1.72 | 2.01 |
| par-1 | 3 | 5.05 (active) | – | -3.77 | 3.51 |
| par-1 | 4 | -0.53 (active) | – | -0.5 | 1.04 |
| CycH (Cyclin H) | 1 | -0.13 | – | -1.04 | 1.73 |
| CycH (Cyclin H) | 2 | -0.53 | – | -0.01 | 0.58 |
| sff (sugar-free frosting) | 1 | 0.89 | – | -0.86 | 0.27 |
| Prp4k (Pre-mRNA processing factor 4 kinase) | 1 | 2.16 | – | -0.42 | -0.61 |
| Prp4k (Pre-mRNA processing factor 4 kinase) | 2 | 2.25 | – | -2.85 | 2.67 |
| Pvr (PDGF- and VEGF-receptor related) | 1 | 2.7 | – | -0.43 | 1.39 |
| lok (loki) | 1 | -0.53 | – | -0.18 | -0.03 |
| lok (loki) | 2 | -0.53 | – | -1.51 | 1.01 |
| Nipped-A | 1 | 1.24 | 0.53 | -3.18 | 0.37 |
| Nipped-A | 2 | -0.53 | – | -2.28 | 2.08 |
| Nipped-A | 3 | -0.53 | – | -2 | 2.92 |
| Nipped-A | 4 | 0.94 | – | -1.66 | 1 |
| hop (hopscotch) | 1 | 3.13 (active) | – | -0.18 | -0.21 |
| hop (hopscotch) | 2 | 2.17 (active) | – | -0.29 | -0.16 |
| hop (hopscotch) | 3 | 4.45 (active) | – | -1.79 | 0.18 |
| Ack-like (Activated Cdc42 kinase-like) | 1 | 0.61 | – | -0.49 | 0.12 |
| bt (bent) | 1 | -0.1 | -0.35 | 0.19 | -0.32 |
| bt (bent) | 2 | -0.27 | -0.53 | -1.08 | 1.1 |
| Cdk5 (Cyclin-dependent kinase 5) | 1 | -0.06 | – | -0.32 | 0.43 |
| Cdk4 (Cyclin-dependent kinase 4) | 1 | 1.53 (active) | – | 1.55 | -0.79 |
| Cdk4 (Cyclin-dependent kinase 4) | 2 | 4.54 (active) | – | 4.47 | 0.24 |
| Fcp1 (TFIIF-interacting CTD phosphatase) | 1 | 0.64 | – | -0.34 | 0.39 |
| Fcp1 (TFIIF-interacting CTD phosphatase) | 2 | 3.81 | – | -4.44 | 4.36 |
| Pitslre | 1 | -0.17 | – | -0.77 | 0.55 |
| Pitslre | 2 | 5.88 | – | -1.65 | -0.17 |
| Sk2 (Sphingosine kinase 2) | 1 | -0.31 | – | -0.11 | 0.43 |
| Adk1 (Adenosine kinase 1) | 1 | -0.53 | -0.53 | 0.36 | 0.06 |
| CycA (Cyclin A) | 1 | -0.47 | – | -6.13 | 9.25 |
| CycA (Cyclin A) | 2 | 0.3 | – | -8.59 | 9.09 |
| CG11425 | 1 | -0.53 | – | 0.3 | 0.06 |
| CG11425 | 2 | -0.34 | – | 0.14 | -0.29 |
| Phlpp (PH domain leucine-rich repeat protein phosphatase) | 1 | 0.6 | – | -3.34 | 4.49 |
| Phlpp (PH domain leucine-rich repeat protein phosphatase) | 2 | -0.53 | – | -0.35 | 1.07 |
| aurA (aurora A) | 1 | -0.07 | – | 0.43 | -0.26 |
| aurA (aurora A) | 2 | -0.4 | – | -0.51 | -0.15 |
| ball (ballchen) | 1 | 0 | – | -0.43 | 0.53 |
| ball (ballchen) | 2 | 1.11 | – | -2.89 | 1.62 |
| Cks30A (Cyclin-dependent kinase subunit 30A) | 1 | 1.78 | – | -0.89 | -0.28 |
| Ddr (Discoidin domain receptor) | 1 | -0.53 | – | 0.77 | -1.2 |
| Ddr (Discoidin domain receptor) | 2 | 3.07 | -0.53 | -2.28 | 1.67 |
| Ddr (Discoidin domain receptor) | 3 | -0.43 | – | -0.02 | 0.56 |
| Ddr (Discoidin domain receptor) | 4 | 0.42 | – | -2.27 | 3.33 |
| Egfr (Epidermal growth factor receptor) | 1 | -0.09 | – | 0 | 0.25 |
| Egfr (Epidermal growth factor receptor) | 2 | 0.4 | – | -1.06 | 1.52 |
| CG7362 | 1 | 0.14 | – | -0.2 | 0.47 |
| CG7362 | 2 | 2.78 | – | -2.42 | 0.26 |
| Coq8 (Coenzyme Q8) | 1 | 0.18 | – | -0.17 | 0.06 |
| PpN58A (Protein phosphatase N at 58A) | 1 | 1.04 | – | -1.19 | 1.51 |
| PpN58A (Protein phosphatase N at 58A) | 2 | -0.53 | – | 0.08 | 0.24 |
| mod(mdg4) + pre-mod(mdg4)-U | 1 | -0.09 | – | -1.15 | 0.96 |
| CSN8 (COP9 signalosome subunit 8) | 1 | -0.41 | – | -0.64 | 0.46 |
| wun2 (wunen-2) | 1 | 0.56 | – | -2 | 2.78 |
| Pka-C2 (Protein kinase, cAMP-dependent, catalytic subunit 2) | 1 | -0.41 | – | -3.97 | -1.13 |
| Pka-C2 (Protein kinase, cAMP-dependent, catalytic subunit 2) | 2 | -0.53 | – | 0.17 | -0.09 |
| Pka-C2 (Protein kinase, cAMP-dependent, catalytic subunit 2) | 3 | 2.25 | – | -1.74 | 1.24 |
| meng (meng-po) | 1 | 0.27 | – | -1.27 | 1.58 |
| meng (meng-po) | 2 | -0.3 | – | -1.53 | 2.56 |
| msn (misshapen) | 1 | 0.91 | – | -1.09 | 1.45 |
| msn (misshapen) | 2 | -0.53 | – | 1.32 | -1.31 |
| msn (misshapen) | 3 | -0.16 | – | -2.14 | -0.5 |
| PTP-ER (Protein tyrosine phosphatase-ERK/Enhancer of Ras1) | 1 | -0.2 | – | -0.73 | 1.26 |
| PTP-ER (Protein tyrosine phosphatase-ERK/Enhancer of Ras1) | 2 | 0.39 | – | -1.9 | 2.39 |
| PTP-ER (Protein tyrosine phosphatase-ERK/Enhancer of Ras1) | 3 | -0.08 | – | -0.61 | 1.19 |
